Test results from US20150011423A1, “MEANS AND METHODS FOR ASSESSING KIDNEY TOXICITY” (BASF SE, priority 2011, published 2015).
Like-named read-outs stand apart in the source and are kept apart here. Marks after values point to notes of the source that are not given here.

How the values were obtained:
[1] = test system: rats; conditions: rat, in vivo
[2] = test system: rats; experiment: 28-day repeated dose study in rats with mass spectrometry-based plasma metabolite profiling (GC-MS, LC-MS, SPE-LC-MS); treatment ratios versus control; conditions: for 16-Methylheptadecanoic acid, treatment ratio versus control / Linolenic acid (C18:cis[9,12,15]3), treatment ratio versus control: Table 3d tubular defect
[3] = female rats, day 14, high dose, Table 3b tubular defect
[4] = female rats, day 28, high dose, Table 3b tubular defect
[5] = male rats, day 14, high dose, Table 3c tubular defect

Kynurenic acid, treatment ratio versus control [1]: 2.01 * | Nervonic acid (C24:cis[15]1), treatment ratio versus control [1]: 1.46 * | Hippuric acid, treatment ratio versus control [2, 3]: 0.55^ | Indole-3-acetic acid, treatment ratio versus control [2, 3]: 0.4 * | Spermidine, treatment ratio versus control [2, 3]: 0.77 * | Hippuric acid, treatment ratio versus control ([2]; female rats, day 28, high dose, Table 1b diuretic effect): 0.47 * | Phosphatidylcholine No 02, treatment ratio versus control ([2]; female rats, day 28, high dose, Table 3a tubular defect): 0.98^ | Hippuric acid, treatment ratio versus control [2, 4]: 0.47 * | Indole-3-acetic acid, treatment ratio versus control [2, 4]: 0.7 * | Spermidine, treatment ratio versus control [2, 4]: 0.75 | Nervonic acid (C24:cis[15]1), treatment ratio versus control [2, 5]: 2.97 * | Pantothenic acid, treatment ratio versus control [2, 5]: 1.19 * | 16-Methylheptadecanoic acid, treatment ratio versus control ([2]; male rats, day 14, high dose): 0.61 * | Linolenic acid (C18:cis[9,12,15]3), treatment ratio versus control ([2]; male rats, day 14, high dose): 0.85 | Kynurenic acid, treatment ratio versus control ([2]; male rats, day 28, high dose, Table 3c tubular defect): 1.44 | 16-Methylheptadecanoic acid, treatment ratio versus control ([2]; male rats, day 28, high dose): 0.72 * | Linolenic acid (C18:cis[9,12,15]3), treatment ratio versus control ([2]; male rats, day 28, high dose): 0.68 *
Compound: NS(=O)(=O)c1cc(C(=O)O)c(NCc2ccco2)cc1Cl [Furosemide]
